These are yes or no findings as the source states them, for the method shown. In cells and extracts the contact can be indirect. Some binding calls cover weakened binding; strength is not graded here.
Target: HCV E2 protein with a FLAG tag, from JC1 E2 FLAG virus (hepatitis C virus (Jc1)) (UniProt P26660)
Experiment: co-IP; anti-FLAG monoclonal antibody on agarose resin with lysates of Huh 7.5.1 cells infected with JC1 E2 FLAG virus (MOI 0.3, 72 hrs); Triton lysis buffer (40 mM HEPES pH 7.5, 100 mM KCl, 1 mM EDTA, 1 mM PMSF, 0.1% Triton X-100); 4°C, 2 hrs; Western blotting

The chains behind the UniProt entries cited, without tags or fusion partners. Residues count along the entry.
UniProt P26660, residues 384-750: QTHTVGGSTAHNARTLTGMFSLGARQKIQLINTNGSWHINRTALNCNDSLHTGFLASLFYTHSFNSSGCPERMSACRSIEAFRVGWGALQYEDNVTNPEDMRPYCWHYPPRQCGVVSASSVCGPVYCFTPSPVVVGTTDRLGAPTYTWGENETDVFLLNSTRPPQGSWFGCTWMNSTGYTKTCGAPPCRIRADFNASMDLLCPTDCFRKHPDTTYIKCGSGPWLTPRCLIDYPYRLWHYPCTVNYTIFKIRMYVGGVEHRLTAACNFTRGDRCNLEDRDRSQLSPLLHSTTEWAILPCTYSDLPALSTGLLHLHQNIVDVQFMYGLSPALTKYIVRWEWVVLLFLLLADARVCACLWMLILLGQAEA
UniProt P08962: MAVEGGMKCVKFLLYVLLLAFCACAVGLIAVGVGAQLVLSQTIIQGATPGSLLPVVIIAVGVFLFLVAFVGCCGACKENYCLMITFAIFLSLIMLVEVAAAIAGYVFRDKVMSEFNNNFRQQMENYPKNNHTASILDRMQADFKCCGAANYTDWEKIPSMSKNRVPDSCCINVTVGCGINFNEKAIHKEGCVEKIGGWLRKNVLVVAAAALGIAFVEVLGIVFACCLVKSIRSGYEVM

Molecule | binding
CD63 (endogenous) (from UniProt P08962 1-238) | binds
CD81 (endogenous) (protein, UniProt P60033 1-236) MGVEGCTKCIKYLLFVFNFVFWLAGGVILGVALWLRHDPQTTNLLYLELGDKPAPNTFYVGIYILIAVGAVMMFVGFLGCYGAIQESQCLLGTFFTCLVILFACEVAAGIWGFVNKDQIAKDVKQFYDQALQQAVVDDDANNAKAVVKTFHETLDCCGSSTLTALTTSVLKNNLCPSGSNIISNLFKEDCHQKIDDLFSGKLYLIGIAAIVVAVIMIFEMILSMVLCCGIRNSSVY | binds
